In general, AC50 refers to the concentration giving half of the maximal activity seen. Low values mean greater potency, high ones weaker potency.

The results in this text go back to PubChem BioAssay AID2685 (National Center for Advancing Translational Sciences (NCATS), 2010).

The list shows a part of the results. Further columns of the screen follow, without active or inactive calls. The list favours compounds with an active or inconclusive main result. The note in brackets gives the kind of curve behind each potency; many fits are weak.

This experiment can be described thus: qHTS Assay for Lipid Storage Modulators in Drosophila S3 Cells.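 For cell number change: cells counted by Cell Tracker Red CMTPX staining in the red channel.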 The following applies: BODIPY lipid droplet fluorescence, 18-24 h; for cell number change: measured here: cell count max response, cells fed with added oleic acid. An excerpt:
NIH Molecular Libraries Probe Production Centers Network [MLPCN] NIH Chemical Genomics Center [NCGC] MLPCN Grant: 1 R03 MH085686-01 Assay Submitter (PI): Beller, Mathias; Max-Planck-Institut fur Biophysikalische Chemie NCGC Assay Overview: Storing lipids as a reservoir for energy or the anabolism of elementary metabolites is a common feature of probably all cells and is conserved from bacteria to humans. The universal cellular lipid storage organelle is the so-called lipid storage droplet (LD). Although ubiquitous, LDs share a simple structure composed of a hydrophobic core that harbors the storage lipids, which is shielded by a droplet-specific phospholipid monolayer to which proteins are attached. The current model of LD biogenesis involves an incorporation of the lipid core into the membrane leaflets of the endoplasmic reticulum (ER) followed by a subsequent budding-like maturation of a LD, which ultimately pinches off. Once released, LD volume can increase by localized lipogenesis or fusion of existing droplet. Storage lipids are re-mobilized enzymatically by lipase activity. Lipase regulation in the adipocyte is heavily studied and involves multiple components including catecholamine signaling, the LD-associated proteins Perilipin and comparative gene identification (CGI-58) and at least two lipases named hormone sensitive lipase (HSL) and adipocyte triglyceride lipase (ATGL). LD regulation outside of the adipocyte is poorly understood and only few components are known. However, there is an urgent need to learn more about ectopic fat depots as mislocalized storage of lipids, for example in the liver or muscle, is an eminent health problem associated with insulin resistance or the metabolic syndrome. We developed a laser-scanning cytometer assay to enable 1,536-well screening and combined the results of the small molecules screen with an RNAi database based on lipid storage.
Triacsin C (Sigma-Aldrich T-4540), an inhibitor of long-chain fatty acyl CoA synthetase that blocks synthesis of triglycerides, was used as a positive control for lipid under-storage. A total of 23 nL of compound solution of different concentrations were transferred to the assay plates using a Kalypsys pin tool equipped with a 1,536-pin array containing 10-nL slotted pins (FP1S10, 0.457-mm diameter, 50.8 mm long; V&P Scientific). One microliter of oleic acid (400 uM) was added, and the plate was lidded with stainless steel rubber gasket lined lids containing pinholes. […] Fluorescence was detected by excitation of the fluorophores with a 488-nm laser on an Acumen Explorer (TTP Lab Tech). The total intensity in channel 2 (500-530 nm) reflected lipid droplet accumulation. Cells were detected using channel 3 (575-640 nm) with 5-um width and 100-um depth filters. The ratio of the number of objects in PMT channel 2 over the number of objects in PMT channel 3 was also calculated. Percent activity was computed relative to an internal control (100% inhibited lipid droplet deposition due to the presence of 20 uM Triacsin C), which was added to 32 wells/plate.
Background: qHTS replaces the single test concentration by a dilution series.

Setting [1] is: measured here: lipid fluorescence (Fed channel) AC50, cells fed with added oleic acid.
[2] abbreviates: measured here: cell number channel AC50, cells fed with added oleic acid.

Consider `CCOC(=O)C1=C(O)C(Nc2nccs2)(C(F)(F)F)N=C1C` (stereo unspecified), for which the cell number change is -13.2%. In the case of `COc1ccc(C(=O)NCc2ccc(C)cc2)cc1S(=O)(=O)N1CCCC1`, the cell number change was -6.16%. As to `O=S(=O)(c1ccc(SCCOc2ccc(Cl)cc2)nc1)N1CCCC1`, the cell number change is -17.8%. Moreover, under setting [1], the AC50 was 0.92 µM [rising, full curve, poor fit].

For `COC(=O)CNC(=O)C1Cc2ccccc2CN1S(=O)(=O)c1cccs1` (stereo unspecified), the cell number change was -16.6%. `Cc1nn(CC(=O)NCCc2cccs2)c(=O)c2cc3ccccc3n12`: the cell number change was determined as 11.3%. Further, under setting [1], the AC50 is 18.4 µM [rising, single point].

In the case of `CC(C)N(C(=S)Nc1cccc(S(=O)(=O)N(C)C)c1)c1ccccc1`, the cell number change came to 2.45%. For the molecule `O/N=C1/CCCCc2sccc21`, the cell number change is 1.81%. In addition, the AC50 under setting [2] was 2.59 µM [rising, partial curve, poor fit]. As for `COP1(=O)C[C@@H](O)[C@@H](O)[C@@H](COCc2ccccc2)O1` (stereo partly specified), the cell number change was -32.5%.

As to `CN(CCC#N)C(=O)COC(=O)c1ccc2c(c1)C(=O)N(C1CCCCC1)C2=O`, the cell number change is -33.9%. Under setting [1], the AC50 is 32.6 µM [falling, partial curve]. With `COc1ccc(CNC(=O)C(C#N)c2nc3ccccc3nc2N2CCN(C)CC2)cc1` (stereo unspecified), the cell number change is -34.3%. Also, the AC50 under setting [2] is 32.6 µM [falling, single point]. Besides, under setting [1], the AC50 is 2.06 µM [rising, partial curve]. As for `O=C(c1cccc(S(=O)(=O)N2CCN(c3ccc(F)cc3)CC2)c1)N1CCCCCCC1`, under setting [2], the AC50 is 1.84 µM [rising, partial curve].

As for `O=C(NCC(=O)N(c1cccnc1)C(C(=O)NC1CCCC1)c1ccc(F)cc1)c1ccco1` (stereo unspecified), the cell number change was -0.194%. The AC50 under setting [1] is 0.651 µM [rising, partial curve]. Take `COc1ccc(N2C(=O)CC(C3CCCO3)C2=O)cc1` (stereo unspecified): the cell number change turned out to be 8.18%. The AC50 under setting [1] was 11.6 µM [rising, partial curve, poor fit]. Consider `COc1cccc(CNc2cc(CSc3ccc(Cl)cc3)nc(C)n2)c1`, for which the cell number change was 138%. The AC50 under setting [2] was 6.51 µM [rising, partial curve]. Under setting [1], the AC50 is 2.91 µM [rising, partial curve]. For the molecule `O=C(C1CC1)N1CCc2cc(Br)cc(S(=O)(=O)NCCCN3CCCC3)c21`, the AC50 under setting [1] was 6.51 µM [falling, single point].

As for `Clc1cccc(CN2CCC(Cc3ccccc3)CC2)c1`, the cell number change is -35.4%. Further, under setting [2], the AC50 was 13 µM [falling, partial curve, poor fit].

Take `COc1ccc(NC(=O)CN(C)C(=O)c2cccnc2Sc2ccc(C)c(C)c2)cc1`: the cell number change was found to be 20.2%. Also, the AC50 under setting [1] was 2.31 µM [rising, full curve, poor fit]. Take `Cn1cccc1C(=O)OCC(=O)Nc1ccc2c(c1)CCC2`: the cell number change is -12.1%. For the same molecule, the concentration at half-maximal activity (AC50) under setting [1] was 0.00461 µM [falling, full curve, poor fit].
